Test results reported in article PMC9210659.
No constants are given. Whether binding was seen depends on the method and setting.

By UniProt entry, the sequences of proteins in these tests, tags left out. Residues count along the entry.
fACP1-KS-AT (Pks13 fragment, residues 1-1063) (I6X8D2, residues 1-1063): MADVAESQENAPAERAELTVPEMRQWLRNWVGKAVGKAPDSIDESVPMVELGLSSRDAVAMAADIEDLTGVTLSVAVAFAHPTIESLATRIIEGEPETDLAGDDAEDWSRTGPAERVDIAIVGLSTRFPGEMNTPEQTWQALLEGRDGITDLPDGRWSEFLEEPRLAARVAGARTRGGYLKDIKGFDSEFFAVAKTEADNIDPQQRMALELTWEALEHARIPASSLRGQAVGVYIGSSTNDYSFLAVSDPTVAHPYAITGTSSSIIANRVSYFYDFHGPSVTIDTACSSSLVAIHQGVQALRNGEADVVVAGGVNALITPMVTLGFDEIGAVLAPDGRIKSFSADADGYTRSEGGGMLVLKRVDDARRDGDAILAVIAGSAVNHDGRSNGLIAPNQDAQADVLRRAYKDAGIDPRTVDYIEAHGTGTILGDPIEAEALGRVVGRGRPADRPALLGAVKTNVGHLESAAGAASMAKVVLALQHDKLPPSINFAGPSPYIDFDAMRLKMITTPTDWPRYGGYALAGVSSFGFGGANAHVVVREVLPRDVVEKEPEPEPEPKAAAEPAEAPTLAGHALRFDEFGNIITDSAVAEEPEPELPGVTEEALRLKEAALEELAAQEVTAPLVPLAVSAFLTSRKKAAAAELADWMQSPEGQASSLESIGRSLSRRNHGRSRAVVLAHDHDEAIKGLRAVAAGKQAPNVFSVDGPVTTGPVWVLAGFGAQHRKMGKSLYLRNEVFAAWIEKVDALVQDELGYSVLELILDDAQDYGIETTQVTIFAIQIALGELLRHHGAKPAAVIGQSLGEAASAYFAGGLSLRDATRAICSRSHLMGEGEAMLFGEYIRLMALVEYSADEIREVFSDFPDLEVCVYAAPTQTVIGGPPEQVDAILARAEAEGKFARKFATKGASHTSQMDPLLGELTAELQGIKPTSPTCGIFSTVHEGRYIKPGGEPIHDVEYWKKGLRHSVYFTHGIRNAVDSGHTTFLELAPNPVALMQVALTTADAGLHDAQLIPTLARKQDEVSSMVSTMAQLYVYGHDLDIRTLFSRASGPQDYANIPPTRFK
fKS (Pks13 fragment, residues 119-575) (I6X8D2, residues 119-575): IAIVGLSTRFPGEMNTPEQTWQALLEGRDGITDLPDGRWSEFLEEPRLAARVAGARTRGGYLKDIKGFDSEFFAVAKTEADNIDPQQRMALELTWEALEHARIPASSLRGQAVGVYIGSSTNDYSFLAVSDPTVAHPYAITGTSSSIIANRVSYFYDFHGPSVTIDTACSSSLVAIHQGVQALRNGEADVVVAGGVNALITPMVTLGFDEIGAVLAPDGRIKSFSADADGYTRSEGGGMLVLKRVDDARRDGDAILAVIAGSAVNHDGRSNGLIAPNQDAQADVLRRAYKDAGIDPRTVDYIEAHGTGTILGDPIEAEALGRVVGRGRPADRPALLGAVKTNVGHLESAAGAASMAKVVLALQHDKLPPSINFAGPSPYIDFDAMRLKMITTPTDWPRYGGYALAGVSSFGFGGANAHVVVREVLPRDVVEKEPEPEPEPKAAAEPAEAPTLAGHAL

Assays:
[1] = molecular target: fACP1-KS-AT (Pks13 fragment, residues 1-1063) (Mycobacterium tuberculosis H37Rv) (UniProt I6X8D2); assay: SAXS; […] (direct) […], Tris-HCl pH 7.5-8.5 ([…]; both purified
[2] = molecular target: fKS (Pks13 fragment, residues 119-575) (Mycobacterium tuberculosis H37Rv) (UniProt I6X8D2); assay: SEC + other: SAXS; […], pH 8.0, 50 mM NaCl, 12-15 °C; both purified

Substance | binding [1] | binding [2]
fACP1-KS-AT (Pks13 fragment, residues 1-1063) (from UniProt I6X8D2 1-1063) (domain or fragment) | no binding (tested: about 1 to 18 mg/ml) | 
fKS (Pks13 fragment, residues 119-575) (from UniProt I6X8D2 119-575) (domain or fragment) |  | no binding
